In the supplement of paper PMC10849652:
Some of the results follow.

Chains of the proteins cited; added tags and fusions are not shown. Lines headed by an entry give the natural chain unless they say otherwise; changes in a name come on top.
UniProt Q5W0V3: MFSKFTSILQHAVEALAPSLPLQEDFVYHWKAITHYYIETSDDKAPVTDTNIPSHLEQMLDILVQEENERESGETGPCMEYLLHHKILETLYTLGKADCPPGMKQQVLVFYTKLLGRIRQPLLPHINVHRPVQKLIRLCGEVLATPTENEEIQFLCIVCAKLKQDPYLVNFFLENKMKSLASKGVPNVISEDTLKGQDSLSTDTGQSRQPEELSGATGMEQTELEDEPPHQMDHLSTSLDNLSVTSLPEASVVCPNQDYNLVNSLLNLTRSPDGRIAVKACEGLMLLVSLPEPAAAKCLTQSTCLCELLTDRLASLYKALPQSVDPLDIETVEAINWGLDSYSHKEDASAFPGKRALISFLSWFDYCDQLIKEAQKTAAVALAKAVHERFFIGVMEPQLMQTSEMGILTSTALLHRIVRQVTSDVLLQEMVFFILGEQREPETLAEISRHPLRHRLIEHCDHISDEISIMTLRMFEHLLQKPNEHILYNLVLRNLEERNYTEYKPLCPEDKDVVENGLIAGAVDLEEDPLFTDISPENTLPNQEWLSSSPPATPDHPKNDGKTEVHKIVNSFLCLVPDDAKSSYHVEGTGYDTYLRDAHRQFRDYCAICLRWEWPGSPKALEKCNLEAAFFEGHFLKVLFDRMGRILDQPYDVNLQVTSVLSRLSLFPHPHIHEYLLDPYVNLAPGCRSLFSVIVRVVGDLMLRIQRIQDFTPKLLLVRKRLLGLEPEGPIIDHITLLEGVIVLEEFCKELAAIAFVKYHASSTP
UniProt P98173: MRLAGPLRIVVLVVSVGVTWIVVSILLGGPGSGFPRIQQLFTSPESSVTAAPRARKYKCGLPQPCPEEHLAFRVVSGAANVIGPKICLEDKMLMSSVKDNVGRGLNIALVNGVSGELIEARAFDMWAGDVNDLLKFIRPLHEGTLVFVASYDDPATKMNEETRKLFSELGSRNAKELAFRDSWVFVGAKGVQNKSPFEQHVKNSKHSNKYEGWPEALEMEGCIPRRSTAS
UniProt Q5BKY9: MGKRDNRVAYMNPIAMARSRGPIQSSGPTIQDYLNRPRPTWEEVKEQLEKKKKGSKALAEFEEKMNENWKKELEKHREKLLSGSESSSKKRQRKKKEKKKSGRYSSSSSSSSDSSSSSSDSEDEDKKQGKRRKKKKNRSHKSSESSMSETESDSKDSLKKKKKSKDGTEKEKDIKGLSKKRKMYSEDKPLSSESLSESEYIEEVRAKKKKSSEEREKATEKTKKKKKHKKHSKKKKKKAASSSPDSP
UniProt Q9Y2C4: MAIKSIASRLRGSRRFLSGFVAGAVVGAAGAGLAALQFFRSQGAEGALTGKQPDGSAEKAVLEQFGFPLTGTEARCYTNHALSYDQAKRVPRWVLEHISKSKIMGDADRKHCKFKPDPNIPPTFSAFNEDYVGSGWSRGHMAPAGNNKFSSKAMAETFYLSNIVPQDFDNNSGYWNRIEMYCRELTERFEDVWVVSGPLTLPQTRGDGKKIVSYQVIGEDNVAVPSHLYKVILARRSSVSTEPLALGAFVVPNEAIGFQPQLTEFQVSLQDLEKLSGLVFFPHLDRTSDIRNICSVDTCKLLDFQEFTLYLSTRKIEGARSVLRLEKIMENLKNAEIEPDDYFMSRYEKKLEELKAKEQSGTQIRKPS
UniProt Q16134: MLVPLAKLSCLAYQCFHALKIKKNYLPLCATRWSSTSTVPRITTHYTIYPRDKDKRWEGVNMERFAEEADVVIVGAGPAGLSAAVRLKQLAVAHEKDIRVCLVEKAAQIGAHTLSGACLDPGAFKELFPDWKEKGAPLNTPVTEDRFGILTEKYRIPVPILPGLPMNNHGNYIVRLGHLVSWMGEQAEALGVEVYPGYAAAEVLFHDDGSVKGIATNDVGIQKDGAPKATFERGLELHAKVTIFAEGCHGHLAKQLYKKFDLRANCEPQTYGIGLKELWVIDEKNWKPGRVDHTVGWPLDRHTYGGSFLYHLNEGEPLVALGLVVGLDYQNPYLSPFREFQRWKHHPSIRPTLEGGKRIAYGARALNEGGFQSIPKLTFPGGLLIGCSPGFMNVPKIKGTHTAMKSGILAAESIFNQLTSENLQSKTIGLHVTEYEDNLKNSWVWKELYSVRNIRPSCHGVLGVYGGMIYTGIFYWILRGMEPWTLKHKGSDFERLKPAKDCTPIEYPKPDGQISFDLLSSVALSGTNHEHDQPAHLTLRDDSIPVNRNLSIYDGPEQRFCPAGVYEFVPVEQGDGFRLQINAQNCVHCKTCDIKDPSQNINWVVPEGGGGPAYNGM
UniProt Q14674: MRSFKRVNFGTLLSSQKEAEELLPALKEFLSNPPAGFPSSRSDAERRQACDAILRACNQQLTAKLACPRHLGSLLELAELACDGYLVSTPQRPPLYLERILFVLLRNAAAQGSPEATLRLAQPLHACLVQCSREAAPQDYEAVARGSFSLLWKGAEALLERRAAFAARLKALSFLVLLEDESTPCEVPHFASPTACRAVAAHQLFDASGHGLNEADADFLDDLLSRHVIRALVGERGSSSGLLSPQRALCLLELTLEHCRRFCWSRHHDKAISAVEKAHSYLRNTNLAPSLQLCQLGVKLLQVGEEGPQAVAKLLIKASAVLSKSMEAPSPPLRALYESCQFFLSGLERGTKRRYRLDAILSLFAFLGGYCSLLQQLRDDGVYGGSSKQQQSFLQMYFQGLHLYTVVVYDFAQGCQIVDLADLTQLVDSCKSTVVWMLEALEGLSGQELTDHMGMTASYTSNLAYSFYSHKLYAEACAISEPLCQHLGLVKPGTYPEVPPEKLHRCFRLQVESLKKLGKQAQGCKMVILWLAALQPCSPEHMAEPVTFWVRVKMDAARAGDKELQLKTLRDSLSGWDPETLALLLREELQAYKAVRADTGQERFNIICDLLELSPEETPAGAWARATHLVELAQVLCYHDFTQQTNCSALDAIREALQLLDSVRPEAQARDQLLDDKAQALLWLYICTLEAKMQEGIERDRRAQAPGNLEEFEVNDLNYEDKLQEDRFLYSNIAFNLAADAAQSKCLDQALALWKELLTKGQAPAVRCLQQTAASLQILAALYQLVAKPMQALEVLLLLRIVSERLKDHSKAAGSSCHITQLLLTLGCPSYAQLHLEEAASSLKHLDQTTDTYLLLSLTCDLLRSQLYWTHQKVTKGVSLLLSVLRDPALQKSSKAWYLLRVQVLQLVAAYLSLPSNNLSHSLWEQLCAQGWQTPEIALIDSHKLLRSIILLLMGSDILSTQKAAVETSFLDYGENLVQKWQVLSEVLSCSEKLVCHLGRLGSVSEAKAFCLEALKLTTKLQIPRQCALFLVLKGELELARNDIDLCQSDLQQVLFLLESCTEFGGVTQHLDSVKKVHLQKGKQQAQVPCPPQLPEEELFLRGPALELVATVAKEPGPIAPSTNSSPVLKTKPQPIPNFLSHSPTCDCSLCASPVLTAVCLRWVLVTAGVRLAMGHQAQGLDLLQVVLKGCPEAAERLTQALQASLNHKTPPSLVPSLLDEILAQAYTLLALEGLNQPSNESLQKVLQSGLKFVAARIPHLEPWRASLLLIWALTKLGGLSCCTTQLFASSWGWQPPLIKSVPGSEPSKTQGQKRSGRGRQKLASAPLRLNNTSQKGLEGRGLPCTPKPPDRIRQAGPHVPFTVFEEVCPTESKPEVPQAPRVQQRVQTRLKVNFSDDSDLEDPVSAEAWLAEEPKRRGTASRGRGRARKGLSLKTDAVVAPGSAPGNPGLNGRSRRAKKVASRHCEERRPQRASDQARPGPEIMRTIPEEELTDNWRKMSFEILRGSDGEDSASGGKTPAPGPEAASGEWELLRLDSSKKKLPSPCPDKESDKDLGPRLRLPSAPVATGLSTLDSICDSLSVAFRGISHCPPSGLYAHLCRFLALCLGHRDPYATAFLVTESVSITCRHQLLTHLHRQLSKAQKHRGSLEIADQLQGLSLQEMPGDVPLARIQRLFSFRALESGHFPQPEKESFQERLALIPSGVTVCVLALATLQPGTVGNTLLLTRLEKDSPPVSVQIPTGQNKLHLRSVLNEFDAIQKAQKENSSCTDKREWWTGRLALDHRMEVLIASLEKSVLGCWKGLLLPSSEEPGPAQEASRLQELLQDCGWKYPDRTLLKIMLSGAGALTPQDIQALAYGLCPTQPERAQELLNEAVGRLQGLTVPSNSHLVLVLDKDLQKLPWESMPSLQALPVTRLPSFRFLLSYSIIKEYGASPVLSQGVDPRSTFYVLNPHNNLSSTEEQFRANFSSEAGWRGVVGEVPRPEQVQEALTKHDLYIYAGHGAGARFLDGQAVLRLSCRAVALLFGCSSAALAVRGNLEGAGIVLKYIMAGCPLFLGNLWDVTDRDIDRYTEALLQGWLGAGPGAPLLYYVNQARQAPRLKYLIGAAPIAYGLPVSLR
UniProt Q9UBQ6: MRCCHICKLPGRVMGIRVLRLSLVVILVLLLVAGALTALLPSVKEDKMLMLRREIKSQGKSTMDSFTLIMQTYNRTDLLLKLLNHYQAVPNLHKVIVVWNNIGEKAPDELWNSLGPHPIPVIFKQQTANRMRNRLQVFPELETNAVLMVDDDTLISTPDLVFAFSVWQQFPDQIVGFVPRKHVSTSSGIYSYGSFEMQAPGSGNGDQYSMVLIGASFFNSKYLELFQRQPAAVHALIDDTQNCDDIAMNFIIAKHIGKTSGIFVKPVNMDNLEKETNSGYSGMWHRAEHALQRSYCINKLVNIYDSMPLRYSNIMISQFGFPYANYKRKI
UniProt Q8IYI6: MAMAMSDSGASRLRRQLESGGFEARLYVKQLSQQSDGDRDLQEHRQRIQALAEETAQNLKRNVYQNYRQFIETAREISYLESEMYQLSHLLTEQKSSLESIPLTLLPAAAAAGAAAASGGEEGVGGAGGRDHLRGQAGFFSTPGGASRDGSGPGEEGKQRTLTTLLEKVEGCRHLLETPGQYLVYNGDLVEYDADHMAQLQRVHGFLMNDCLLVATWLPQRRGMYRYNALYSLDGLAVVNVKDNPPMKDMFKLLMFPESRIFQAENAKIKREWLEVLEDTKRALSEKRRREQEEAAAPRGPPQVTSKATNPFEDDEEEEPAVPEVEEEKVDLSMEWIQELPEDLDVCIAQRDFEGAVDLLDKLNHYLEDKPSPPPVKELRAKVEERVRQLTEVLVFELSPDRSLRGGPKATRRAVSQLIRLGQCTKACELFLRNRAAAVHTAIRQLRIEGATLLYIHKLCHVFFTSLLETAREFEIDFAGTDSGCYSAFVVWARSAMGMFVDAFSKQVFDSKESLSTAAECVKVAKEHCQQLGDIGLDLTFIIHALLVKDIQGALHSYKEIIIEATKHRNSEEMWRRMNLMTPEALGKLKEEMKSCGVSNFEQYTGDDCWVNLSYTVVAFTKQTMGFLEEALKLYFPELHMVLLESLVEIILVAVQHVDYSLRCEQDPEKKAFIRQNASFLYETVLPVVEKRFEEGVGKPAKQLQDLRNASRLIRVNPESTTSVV
UniProt Q96DZ1: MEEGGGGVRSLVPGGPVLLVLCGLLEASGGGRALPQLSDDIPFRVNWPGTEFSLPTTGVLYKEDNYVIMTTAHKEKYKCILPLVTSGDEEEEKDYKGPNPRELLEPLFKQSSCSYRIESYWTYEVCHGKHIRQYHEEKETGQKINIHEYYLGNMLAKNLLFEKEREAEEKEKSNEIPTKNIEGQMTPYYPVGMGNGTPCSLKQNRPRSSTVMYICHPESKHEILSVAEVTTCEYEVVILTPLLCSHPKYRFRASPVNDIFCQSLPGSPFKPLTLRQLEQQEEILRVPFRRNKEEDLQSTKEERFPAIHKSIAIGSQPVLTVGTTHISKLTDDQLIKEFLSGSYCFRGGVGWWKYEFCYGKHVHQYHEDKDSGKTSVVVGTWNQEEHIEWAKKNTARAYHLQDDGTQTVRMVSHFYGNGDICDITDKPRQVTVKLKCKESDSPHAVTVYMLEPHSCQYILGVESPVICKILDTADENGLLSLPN
UniProt Q7Z309: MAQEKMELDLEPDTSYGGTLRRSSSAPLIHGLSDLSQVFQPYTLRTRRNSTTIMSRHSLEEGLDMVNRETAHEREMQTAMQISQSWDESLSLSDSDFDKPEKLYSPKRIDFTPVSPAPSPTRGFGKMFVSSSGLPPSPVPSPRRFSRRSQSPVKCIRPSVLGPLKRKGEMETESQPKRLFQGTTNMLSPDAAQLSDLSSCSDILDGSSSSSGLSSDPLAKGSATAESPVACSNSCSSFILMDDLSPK
UniProt Q06265, whole entry, looked up: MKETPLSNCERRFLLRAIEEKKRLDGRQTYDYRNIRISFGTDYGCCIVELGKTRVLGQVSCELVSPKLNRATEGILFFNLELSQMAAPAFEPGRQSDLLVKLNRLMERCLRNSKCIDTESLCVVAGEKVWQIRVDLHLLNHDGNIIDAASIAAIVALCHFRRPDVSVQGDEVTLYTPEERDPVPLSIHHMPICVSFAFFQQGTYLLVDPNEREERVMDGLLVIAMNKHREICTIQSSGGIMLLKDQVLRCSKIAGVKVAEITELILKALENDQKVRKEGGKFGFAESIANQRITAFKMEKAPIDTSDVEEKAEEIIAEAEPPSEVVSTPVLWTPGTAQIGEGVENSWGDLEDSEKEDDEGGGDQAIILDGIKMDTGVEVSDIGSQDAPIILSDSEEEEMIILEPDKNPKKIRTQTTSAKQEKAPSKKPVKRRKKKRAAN

Assays:
Assay in all cases: log2 fold change, soluble protein after heating vs DMSO (PISA); higher = thermal stabilisation; K562 lysate, 10 uM; active = over 0.2 and 3.5 SD of the protein, either way, in both replicates (recomputed)
[1] = compound: CCCS(=O)(=O)Nc1ccc(F)c(C(=O)c2c[nH]c3ncc(-c4ccc(Cl)cc4)cc23)c1F [vemurafenib]
Method in brief: (§1)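 Dounce homogenisation of K562 pellets in PBS pH 7.4 with 1 mM MgCl2 produced a crude extract, used at 1 mg/mL protein. Exposure to 10 μM compound lasted 30 min, and aliquots were then heated for 3 min across 48°C-58°C, pooled and brought to 0.5% NP-40 at 4°C. The supernatant after 21,000xg for 90 min was quantified by TMTpro 16plex LC-MS/MS with channel sums equalised. Duplicate values are given as log-two fold change in thermal stability relative to solvent controls.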

[2] = compound: CCCS(=O)(=O)Nc1ccc(F)c(C(=O)c2c[nH]c3ncc(Cl)cc23)c1F
Method in brief: as §1

[3] = compound: CCN(CCCOc1ccc2c(Nc3cc(CC(=O)Nc4cccc(F)c4)[nH]n3)ncnc2c1)CCOP(=O)(O)O [barasertib]
Method in brief: as §1

[4] = compound: CC[C@@H]1C(=O)N(C)c2cnc(Nc3ccc(C(=O)NC4CCN(C)CC4)cc3OC)nc2N1C1CCCC1
Method in brief: as §1

[5] = compound: CC[C@@H]1C(=O)N(C)c2cnc(Nc3ccc(C(=O)N[C@H]4CC[C@H](N5CCN(CC6CC6)CC5)CC4)cc3OC)nc2N1C(C)C [volasertib]
Method in brief: as §1

[6] = compound: CCn1c(C(=O)N(C2CC2)C2CC2)cc2c3c(ncn3C)c(Nc3cc(C)n(C)n3)nc21
Method in brief: as §1

[7] = compound: CCn1cc(-c2ccnc3[nH]c(-c4cccc(CN(C)C)c4)cc23)c(-c2ccc(NC(=O)N(C)C)cc2)n1
Method in brief: as §1

[8] = compound: CN1CCC(CNc2ccc3ncc(-c4cccc(OC(F)(F)F)c4)n3n2)CC1
Method in brief: as §1

[9] = compound: CN1CCN(CCOc2cc(OC3CCOCC3)c3c(Nc4c(Cl)ccc5c4OCO5)ncnc3c2)CC1 [saracatinib]
Method in brief: as §1

[10] = compound: CN1CCN(c2nc(C3=C(c4c[nH]c5ccccc45)C(=O)NC3=O)c3ccccc3n2)CC1 [sotrastaurin]
Method in brief: as §1

Measured: log2 fold change

FAH isoform 2 (UniProt P16930)
inactive: [1] 0.118 | [2] 0.049 | [3] 0.003 | [4] -0.104 | [5] 0 | [6] -0.085 | [7] -0.293 | [8] 0.139 | [9] -0.02 | [10] 0.033

FAM160B1 (UniProt Q5W0V3)
inactive: [1] -0.002 | [2] 0.022 | [3] 0.015 | [4] 0.042 | [5] -0.017 | [6] 0.008 | [7] -0.07 | [8] 0.001 | [9] 0.004 | [10] 0.044

FAM50A (UniProt Q14320)
inactive: [1] -0.022 | [2] 0.012 | [3] -0.02 | [4] -0.017 | [5] 0.014 | [6] 0.004 | [7] 0.168 | [8] -0.011 | [9] 0.016 | [10] 0.008

FAM3A (UniProt P98173)
inactive: [1] 0.046 | [2] -0.012 | [3] -0.022 | [4] 0.006 | [5] 0.045 | [6] -0.02 | [7] -0.03 | [8] 0.055 | [9] -0.016 | [10] -0.011

FAM133B (UniProt Q5BKY9)
inactive: [1] 0.124 | [2] -0.027 | [3] 0.076 | [4] -0.22 | [5] 0.008 | [6] 0.023 | [7] 0.323 | [8] -0.16 | [9] 0.057 | [10] 0.017

EXOG (UniProt Q9Y2C4)
inactive: [1] 0.078 | [2] -0.036 | [3] -0.073 | [4] -0.104 | [5] -0.088 | [6] 0.045 | [7] 0.039 | [8] 0.075 | [9] -0.004

FAHD1 (UniProt Q6P587)
inactive: [1] 0.171 | [2] 0.024 | [3] 0.01 | [4] 0.233 | [5] -0.033 | [6] -0.132 | [7] -0.211 | [8] 0.254 | [9] 0.019 | [10] 0.028

EXOSC10 (UniProt Q01780)
inactive: [1] 0.026 | [2] 0.021 | [3] 0.077 | [4] 0.015 | [5] -0.015 | [6] -0.088 | [7] -0.031 | [8] -0.065 | [9] 0.001 | [10] 0.029

FAAP100 (UniProt Q0VG06)
inactive: [1] -0.104 | [2] 0.01 | [3] -0.059 | [4] -0.035 | [5] -0.017 | [6] 0.032 | [7] 0.053 | [8] -0.019 | [9] -0.144 | [10] 0.015

ERMAP (UniProt Q96PL5)
inactive: [1] 0.085 | [2] 0.006 | [3] -0.042 | [4] 0.035 | [5] -0.003 | [6] -0.012 | [7] -0.135 | [8] 0.134 | [9] 0.03 | [10] 0

EXOSC4 (UniProt Q9NPD3)
inactive: [1] -0.018 | [2] 0.03 | [3] -0.019 | [4] 0.022 | [5] 0.022 | [6] -0.038 | [7] -0.033 | [8] 0.061 | [9] -0.027 | [10] 0.012

FAM207A (UniProt Q9NSI2)
inactive: [1] -0.016 | [2] 0.01 | [3] -0.087 | [4] 0.061 | [5] -0.006 | [6] -0.044 | [7] -0.021 | [8] -0.021 | [9] -0.007 | [10] -0.013

ERVK3-1, A0A0U1RQV1
inactive: [1] 0.088 | [2] -0.039 | [3] 0.056 | [4] -0.003 | [5] -0.006 | [6] -0.018 | [7] -0.291 | [8] 0.139 | [9] 0.084 | [10] -0.004

FAM49B (UniProt Q9NUQ9)
inactive: [1] -0.004 | [2] -0.017 | [3] -0.008 | [4] -0.034 | [5] 0.013 | [6] -0.012 | [7] 0.021 | [8] 0.025 | [9] -0.004 | [10] -0.023

ETFDH (UniProt Q16134)
inactive: [1] -0.008 | [2] -0.005 | [3] 0.03 | [4] -0.015 | [5] -0.026 | [6] -0.013 | [7] -0.03 | [8] -0.022 | [9] 0.011 | [10] 0.005

FAHD2A (UniProt Q96GK7)
inactive: [1] -0.005 | [2] 0.004 | [3] -0.007 | [4] 0.032 | [5] 0.002 | [6] -0.028 | [7] -0.037 | [8] 0.054 | [9] -0.02 | [10] -0.016

ESPL1 (UniProt Q14674)
inactive: [1] 0.049 | [2] 0.204 | [3] 0.054 | [4] 0.039 | [5] 0.09 | [6] -0.002 | [7] -0.047 | [8] -0.012 | [9] -0.065 | [10] -0.023

EXTL2 (UniProt Q9UBQ6)
inactive: [1] -0.052 | [2] 0.066 | [3] 0.057 | [4] -0.13 | [5] 0.019 | [6] 0.03 | [7] -0.198 | [8] 0.078 | [9] -0.017 | [10] -0.026

ESS2 (UniProt Q96DF8)
inactive: [1] 0 | [2] 0.003 | [3] -0.019 | [4] 0.135 | [5] 0.014 | [6] 0.028 | [7] -0.014 | [8] 0.049 | [9] -0.011 | [10] -0.02

FAM192A (UniProt Q9GZU8)
inactive: [1] -0.034 | [2] 0 | [3] -0.006 | [4] -0.021 | [5] 0.024 | [6] 0.055 | [7] 0.005 | [8] 0.009 | [9] -0.014 | [10] 0.03

FAM241A (UniProt Q8N8J7)
inactive: [1] -0.012 | [2] -0.014 | [3] 0.133 | [4] 0.007 | [5] -0.007 | [6] 0.047 | [7] -0.12 | [8] 0 | [9] 0.006 | [10] 0.022

EYA3 (UniProt Q99504)
inactive: [1] 0.09 | [2] 0.062 | [3] -0.022 | [4] -0.04 | [5] -0.042 | [6] -0.05 | [7] -0.14 | [8] -0.068 | [9] -0.015 | [10] -0.028

ERO1B (UniProt Q86YB8)
inactive: [1] 0.117 | [2] 0.058 | [3] 0.037 | [4] 0.004 | [5] -0.016 | [6] -0.004 | [7] 0.053 | [8] 0.162 | [9] 0.079 | [10] 0.058

FAM162A (UniProt Q96A26)
inactive: [1] 0.035 | [2] -0.041 | [3] -0.013 | [4] 0.086 | [5] 0.029 | [6] 0.054 | [7] -0.101 | [8] 0.047 | [9] -0.022 | [10] -0.028

FAM136A (UniProt Q96C01)
inactive: [1] 0.009 | [2] -0.018 | [3] 0.086 | [4] 0.016 | [5] 0.054 | [6] -0.005 | [7] 0.03 | [8] -0.011 | [9] 0.003 | [10] 0.077

EVI5 isoform 2 (UniProt O60447)
inactive: [1] -0.214 | [2] 0.132 | [3] -0.008 | [4] -0.02 | [5] -0.068 | [6] 0.015 | [7] 0.001 | [8] -0.075 | [9] 0.096 | [10] -0.117

EXOC8 (UniProt Q8IYI6)
inactive: [1] 0.001 | [2] 0.026 | [3] 0.033 | [4] -0.009 | [5] -0.049 | [6] -0.008 | [7] 0.025 | [8] -0.073 | [9] 0.008 | [10] 0.012

2 successive records from above:
ETFDH (UniProt Q16134)
inactive: [1] -0.008 | [2] -0.005 | [3] 0.03 | [4] -0.015 | [5] -0.026 | [6] -0.013 | [7] -0.03 | [8] -0.022 | [9] 0.011 | [10] 0.005

FAHD2A (UniProt Q96GK7)
inactive: [1] -0.005 | [2] 0.004 | [3] -0.007 | [4] 0.032 | [5] 0.002 | [6] -0.028 | [7] -0.037 | [8] 0.054 | [9] -0.02 | [10] -0.016

(further entries)

ERLEC1 (UniProt Q96DZ1)
inactive: [1] 0.009 | [2] 0.003 | [3] 0.009 | [4] -0.023 | [5] 0.015 | [6] -0.013 | [7] -0.027 | [8] 0.034 | [9] -0.052 | [10] 0.009

FAM122B isoform 3 (UniProt Q7Z309)
inactive: [1] -0.108 | [2] -0.047 | [3] -0.034 | [4] 0.139 | [5] 0.029 | [6] -0.089 | [7] -0.095 | [8] 0.236 | [9] 0.034 | [10] 0.025

EXOSC9 (UniProt Q06265)
inactive: [1] -0.02 | [2] 0.012 | [3] -0.017 | [4] 0.037 | [5] 0.014 | [6] -0.038 | [7] 0.024 | [8] -0.007 | [9] -0.033 | [10] -0.007
